Experimental data taken from paper PMC10122647 (Nature Communications, 2022).

Tested on: Rpa3 (Pyrococcus abyssi)
Experiment: SPR
Conditions: 500 nM protein; SPR/BLI: 20 mM Na-HEPES pH 8, 150 mM NaCl, 25 C (+0.05% Tween for SPR; +0.2 mg/mL BSA for BLI); recombinant protein; protein details: TEV-cleavable N-terminal His14; label: 5'-biotin-TEG; single-stranded DNA

TGCCAAGCTTGCATGCCTGCAGGTCGACTCTA [ssDNA-32mer]
binding result: no binding

For at least one entry, the source does not settle the construct or the ends of the probe. Negatives hold for the conditions tested.
